As a reminder, the AC50 is the concentration at which the activity in the assay is half-maximal. Lower therefore signals greater potency.

A short description of the test: qHTS Assay for Lipid Storage Modulators in Drosophila S3 Cells.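 For cell number change: cells counted by Cell Tracker Red CMTPX staining in the red channel.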 To be noted: BODIPY lipid droplet fluorescence, 18-24 h; for cell number change: measured here: cell count max response, cells fed with added oleic acid. In a few lines: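 Drosophila S3 cells got compounds at several concentrations plus oleic acid (400 uM solution). Laser-scanning cytometry with 488 nm excitation read lipid droplets at 500-530 nm and cells at 575-640 nm. Percent activity was relative to 20 uM Triacsin C.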

The mark [1] stands for this setting: measured here: lipid fluorescence (Fed channel) AC50, cells fed with added oleic acid.
Setting [2] is: measured here: cell number channel AC50, cells fed with added oleic acid.

This is one part of the list. These are further read-outs of the screen, such as a control signal, another cell line or another target. No call is given for them. Most of these compounds were active or inconclusive in the main read-out, so they are no random draw. The note in brackets gives the kind of curve behind each potency; many fits are weak.

Take `Cc1ccc(S(=O)(=O)c2cn(C)c3cc(N4CCN(C)CC4)c(F)cc3c2=O)cc1`: the cell number change was found to be 20.2%. Further, the AC50 under setting [1] was 4.11 µM [falling, single point].

As to `CCCCn1c(=O)[nH]c(=O)c2c1nc(-c1ccccc1F)n2Cc1ccccc1`, the AC50 under setting [1] is 1.64 µM [falling, partial curve].

For the molecule `COCc1c(C(=O)NCCOc2ccc(Cl)cc2)oc2ccccc12`, the cell number change was -15.4%. The AC50 under setting [1] was 1.03 µM [falling, full curve, poor fit].

`CC1CN(S(=O)(=O)c2cccc(C(=O)NCc3ccco3)c2)CC(C)O1` (stereo not drawn): the cell number change is -27.3%.

Take `CCc1nc2cc(CC(=O)O)ccc2o1`: the cell number change was determined as 24.9%. Besides, the AC50 under setting [1] was 18.4 µM [rising, single point].

With `CCCCn1c(/C=N/Nc2nc3ccccc3[nH]2)nc2ccccc21`, the cell number change is -10.7%. Besides, the half-maximal activity concentration (AC50) under setting [1] is 6.51 µM [falling, partial curve].

For the molecule `O=C(Nc1ccccn1)c1sc2cc([N+](=O)[O-])ccc2c1Cl`, the cell number change is -11.1%. Besides, the half-maximal activity concentration (AC50) under setting [1] was 6.51 µM [falling, single point].

For `O=C(Cc1cccs1)N1CCN=C1SCc1ccccc1Cl`, the cell number change is -16.3%. In addition, the half-maximal activity concentration (AC50) under setting [2] was 0.82 µM [falling, single point]. In addition, the AC50 under setting [1] was 0.731 µM [falling, single point].

In the case of `CN(CC(=O)Nc1ccccc1C(F)(F)F)C(=O)c1ccc2c(=O)n3c(nc2c1)CCC3`, the cell number change turned out to be 1.44%. In addition, under setting [1], the half-maximal activity concentration (AC50) was 29.1 µM [rising, single point].

As to `Cc1ccccc1OCC(=O)N(Cc1ccco1)c1c(N)n(Cc2ccccc2)c(=O)[nH]c1=O`, the cell number change is -42.7%. Besides, the half-maximal activity concentration (AC50) under setting [2] was 16.4 µM [falling, partial curve]. Also, the half-maximal activity concentration (AC50) under setting [1] was 0.366 µM [falling, full curve, poor fit].

On to `O=C(Nc1cc(Cl)ccn1)C1CCN(S(=O)(=O)c2cccs2)CC1`, for which the cell number change was -0.512%. The half-maximal activity concentration (AC50) under setting [1] was 0.651 µM [rising, full curve, poor fit].

Turning to `COc1ccc(-n2ccc(=O)c3c2CCCC3=O)cc1`, the cell number change is 4.13%. For the same molecule, the half-maximal activity concentration (AC50) under setting [1] is 0.116 µM [rising, full curve, poor fit].

For `O=C(CCCCCn1c(=S)[nH]c2ccc(N3CCOCC3)cc2c1=O)NCc1ccc2c(c1)OCO2`, the cell number change was -68.5%. The AC50 under setting [2] is 32.6 µM [falling, single point].

Take `COc1ccc(CCCNC(=O)C2CCC(=O)N(CCc3cccc(F)c3)C2)cc1` (stereo not drawn): the cell number change is 8.8%. Further, under setting [1], the concentration at half-maximal activity (AC50) was 1.64 µM [rising, partial curve, poor fit].

With `COc1ccc(/C=C2\N=C(SC)NC2=O)cc1`, the cell number change was -76.7%. The half-maximal activity concentration (AC50) under setting [2] is 29.1 µM [falling, partial curve, poor fit]. For the same molecule, under setting [1], the concentration at half-maximal activity (AC50) was 0.231 µM [falling, full curve, poor fit].

For `O=C(Nc1nc(-c2ccccn2)cs1)Nc1ccc(F)cc1F`, the cell number change was found to be 23.1%. For the same molecule, the AC50 under setting [2] was 0.0731 µM [rising, full curve, poor fit]. Moreover, the AC50 under setting [1] is 18.4 µM [falling, single point].

As to `CCCCCCNC(=O)C(C#N)c1nc2ccccc2nc1N1CCOCC1` (stereo not drawn), the cell number change was -0.711%.

In the case of `COc1cccc(C(=O)N2CCC(C(=O)NCc3ccco3)CC2)c1`, the cell number change is 24.6%. Besides, the AC50 under setting [2] was 0.58 µM [rising, full curve]. The AC50 under setting [1] was 1.3 µM [rising, full curve].

As for `Cc1ccc(C)c(OCCC(=O)OCC(=O)NC(=O)NC2CCCC2)c1`, the AC50 under setting [1] is 6.51 µM [falling, single point].

As to `O=C(NCc1ccccn1)C(=O)NCC1OCCCN1S(=O)(=O)c1cc(F)ccc1F` (stereo not drawn), the cell number change was -5.87%. Besides, the AC50 under setting [1] is 0.146 µM [rising, partial curve, poor fit].

As to `CN(CC(=O)Nc1cccc(F)c1)C(=O)Cn1c(=O)cnc2ccccc21`, the cell number change is -20.5%.

For the molecule `COc1ccc(OCCNC(=S)Nc2cccc3ccccc23)cc1`, the AC50 reads like this: under setting [2], 1.64 µM [rising, partial curve, poor fit]; under setting [1], 6.51 µM [rising, single point].

For `COc1ccc(CNS(=O)(=O)c2ccc3c(c2)NC(=O)C(C)S3)cc1` (stereo not drawn), the AC50 under setting [1] is 2.91 µM [rising, single point].

As for `CCCCCCCNC(=O)C1(CC2CC(c3cccc(Br)c3)=NO2)CCN(C(=O)OC(C)(C)C)CC1` (stereo not drawn), the cell number change stood at 5.69%.

Take `O=C(CCCCn1c(=O)c2ccccc2n(Cc2ccccc2F)c1=O)NC1CCN(Cc2ccccc2)CC1`: the cell number change was -29.4%. The half-maximal activity concentration (AC50) under setting [2] was 1.64 µM [falling, full curve, poor fit]. For the same molecule, the AC50 under setting [1] is 0.82 µM [falling, full curve].

Turning to `COc1ccc(C2C(C(=O)N3CCCC3)c3cc(OC)c(OC)cc3C(=O)N2C)cc1OC` (stereo not drawn), the AC50 under setting [2] was 3.66 µM [falling, partial curve, poor fit].

`CC1(C)Cc2c(sc(/N=C/N3CCCCCC3)c2C#N)C(C)(C)N1`: the cell number change was -48.2%. For the same molecule, the AC50 under setting [2] was 29.1 µM [falling, single point].

In the case of `CCOC(=O)c1c(NC(=O)CSC2=NN3CCCC(=O)N=C3S2)sc2c1CCCCC2`, the cell number change is 32%. Besides, the half-maximal activity concentration (AC50) under setting [2] is 7.31 µM [rising, partial curve]. In addition, the AC50 under setting [1] was 8.2 µM [rising, partial curve].

Consider `Cc1ccc(-c2c(C)sc(=NC(=O)c3ccco3)n2C)cc1`, for which the cell number change was -23%. The concentration at half-maximal activity (AC50) under setting [1] was 29.1 µM [falling, single point].

As for `CCN(CC)c1c([N+](=O)[O-])ncn1C`, the cell number change is -16.7%. Under setting [1], the half-maximal activity concentration (AC50) was 23.1 µM [falling, partial curve].

`O=C(Nc1ccccc1C(=O)Nc1nnc(C(F)(F)F)s1)c1ccccc1`: the cell number change was -52%. In addition, the half-maximal activity concentration (AC50) under setting [2] was 18.4 µM [falling, single point]. Besides, under setting [1], the AC50 is 23.1 µM [falling, single point].

In the case of `O=C(Cn1nnc(-c2ccccc2)n1)NCc1ccco1`, the cell number change is -1.65%. Also, the AC50 under setting [1] is 23.1 µM [falling, single point].

Regarding `COc1ccc(Cn2c(CCCO)nc3ccccc32)cc1OC`, the cell number change worked out at 144%. Further, under setting [2], the AC50 is 29.1 µM [rising, single point].

Consider `COc1ccccc1CNC(=O)CN1C(=O)CSc2ccc(S(=O)(=O)N3CCCC3)cc21`, for which the cell number change was 12.5%.

Take `Cc1csc(NC(=O)c2cc3ccccc3o2)n1`: the cell number change was found to be 12.8%. For the same molecule, the AC50 under setting [1] was 13 µM [falling, partial curve].

For the molecule `CN(CC(=O)Nc1ccc(F)cc1)C(=O)COC(=O)/C=C/c1ccccc1[N+](=O)[O-]`, the cell number change amounted to 13.1%. The half-maximal activity concentration (AC50) under setting [1] is 0.00517 µM [rising, full curve, poor fit].

For `COC(=O)C(C)Sc1ncnc2c1nnn2-c1ccc(F)cc1` (stereo not drawn), the cell number change was -10.6%. Further, the concentration at half-maximal activity (AC50) under setting [1] is 0.092 µM [falling, full curve, poor fit].

(Values after PubChem BioAssay AID2685 (National Center for Advancing Translational Sciences (NCATS), 2010).)
